According to publication PMC11601901:
No constants are given. Whether binding was seen depends on the method and setting. In cells and extracts the contact can be indirect. Some binding calls cover weakened binding; strength is not graded here. For some of these results: Sequences can lack the tags named with a protein.

Protein sequences, listed by entry. Tags and fused reporters are not part of them. Lines headed by an entry give the natural chain unless they say otherwise; changes in a name come on top. Chains listed by the source or under a name are the forms on record and can include a tag or linker. Residues count along the entry.
UniProt Q86WV6: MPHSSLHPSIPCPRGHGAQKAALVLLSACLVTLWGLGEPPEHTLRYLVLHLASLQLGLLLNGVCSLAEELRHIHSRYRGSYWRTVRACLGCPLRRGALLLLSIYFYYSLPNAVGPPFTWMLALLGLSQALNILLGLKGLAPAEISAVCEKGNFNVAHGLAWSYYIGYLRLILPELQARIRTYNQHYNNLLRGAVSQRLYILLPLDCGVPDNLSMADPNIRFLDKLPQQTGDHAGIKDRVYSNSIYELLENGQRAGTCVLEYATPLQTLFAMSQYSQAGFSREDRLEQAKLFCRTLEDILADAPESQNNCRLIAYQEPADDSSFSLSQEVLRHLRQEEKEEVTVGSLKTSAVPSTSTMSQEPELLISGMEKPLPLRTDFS
MYC-tagged N-terminus of STING (aa 1-139): residues 1-139 of Q86WV6
MYC-tagged C-terminus of STING (aa 140-379): residues 140-379 of Q86WV6

Assays:
[1] = target: endogenous CRM1 (human (endogenous in HK1)), O14980; assay: co-IP; endogenous proteins in HK1 cells (control, HMOX1-KO, or HMOX1-KO re-expressing HO-1ΔTMS); treatments: RT, cGAMP; whole-cell lysates immunoprecipitated overnight at 4 °C with the indicated antibodies, Protein A/G magnetic beads; conditions: remark: other sources report otherwise
[2] = target: endogenous STING (human (endogenous in HK1)), Q86WV6; assay: as above; conditions: remark: other sources report otherwise
[3] = target: MYC-tagged full-length STING (aa 1-379) (human) (UniProt Q86WV6); assay: co-IP; HEK293T cells co-transfected with MYC-tagged STING or its truncations and Flag-tagged HO-1 or its mutants; whole-cell lysates
[4] = target: MYC-tagged C-terminus of STING (aa 140-379) (human) (UniProt Q86WV6); assay: as above
[5] = target: MYC-tagged N-terminus of STING (aa 1-139) (human) (UniProt Q86WV6); assay: as above
[6] = target: endogenous STING (human (endogenous in HK1)) (UniProt Q86WV6); assay: co-IP; endogenous proteins in HK1 cells (control, HMOX1-KO, or HMOX1-KO re-expressing HO-1ΔTMS); treatments: RT, cGAMP; whole-cell lysates immunoprecipitated overnight at 4 °C with the indicated antibodies, Protein A/G magnetic beads
[7] = target: HA-tagged full-length cGAS (aa 1-522) (UniProt Q8N884); assay: co-IP; HEK293T cells co-transfected with Flag-tagged HO-1 mutants and HA-tagged cGAS or its truncations, under RT; whole-cell lysates

| Binder | binding [3] | also measured |
| --- | --- | --- |
| endogenous cGAS, Q8N884 1-522 (protein) MQPWHGKAMQRASEAGATAPKASARNARGAPMDPTESPAAPEAALPKAGKFGPARKSGSRQKKSAPDTQERPPVRATGARAKKAPQRAQDTQPSDATSAPGAEGLEPPAAREPALSRAGSCRQRGARCSTKPRPPPGPWDVPSPGLPVSAPILVRRDAAPGASKLRAVLEKLKLSRDDISTAAGMVKGVVDHLLLRLKCDSAFRGVGLLNTGSYYEHVKISAPNEFDVMFKLEVPRIQLEEYSNTRAYYFVKFKRNPKENPLSQFLEGEILSASKMLSKFRKIIKEEINDIKDTDVIMKRKRGGSPAVTLLISEKISVDITLALESKSSWPASTQEGLRIQNWLSAKVRKQLRLKPFYLVPKHAKEGNGFQEETWRLSFSHIEKEILNNHGKSKTCCENKEEKCCRKDCLKLMKYLLEQLKERFKDKKHLDKFSSYHVKTAFFHVCTQNPQDSQWDRKDLGLCFDNCVTYFLQCLRTEKLENYFIPEFNLFSSNLIDKRSKEFLTKQIEYERNNEFPVFDEF |  | binding [1]: binds |
| endogenous TBK1, Q9UHD2 1-729 (protein) MQSTSNHLWLLSDILGQGATANVFRGRHKKTGDLFAIKVFNNISFLRPVDVQMREFEVLKKLNHKNIVKLFAIEEETTTRHKVLIMEFCPCGSLYTVLEEPSNAYGLPESEFLIVLRDVVGGMNHLRENGIVHRDIKPGNIMRVIGEDGQSVYKLTDFGAARELEDDEQFVSLYGTEEYLHPDMYERAVLRKDHQKKYGATVDLWSIGVTFYHAATGSLPFRPFEGPRRNKEVMYKIITGKPSGAISGVQKAENGPIDWSGDMPVSCSLSRGLQVLLTPVLANILEADQEKCWGFDQFFAETSDILHRMVIHVFSLQQMTAHKIYIHSYNTATIFHELVYKQTKIISSNQELIYEGRRLVLEPGRLAQHFPKTTEENPIFVVSREPLNTIGLIYEKISLPKVHPRYDLDGDASMAKAITGVVCYACRIASTLLLYQELMRKGIRWLIELIKDDYNETVHKKTEVVITLDFCIRNIEKTVKVYEKLMKINLEAAELGEISDIHTKLLRLSSSQGTIETSLQDIDSRLSPGGSLADAWAHQEGTHPKDRNVEKLQVLLNCMTEIYYQFKKDKAERRLAYNEEQIHKFDKQKLYYHATKAMTHFTDECVKKYEAFLNKSEEWIRKMLHLRKQLLSLTNQCFDIEEEVSKYQEYTNELQETLPQKMFTASSGIKHTMTPIYPSSNTLVEMTLGMKKLKEEMEGVVKELAENNHILERFGSLTMDGGLRNVDCL |  | binding [2]: binds |
| Flag-tagged WT HO-1 (protein, UniProt P09601 1-288) MERPQPDSMPQDLSEALKEATKEVHTQAENAEFMRNFQKGQVTRDGFKLVMASLYHIYVALEEEIERNKESPVFAPVYFPEELHRKAALEQDLAFWYGPRWQEVIPYTPAMQRYVKRLHEVGRTEPELLVAHAYTRYLGDLSGGQVLKKIAQKALDLPSSGEGLAFFTFPNIASATKFKQLYRSRMNSLEMTPAVRQRVIEEAKTAFLLNIQLFEELQELLTHDTKDQSPSRAPGLRQRASNKVQDSAPVETPRGKPPLNTRSQAPLLRWVLTLSFLVATVAVGLYAM | binds | binding [4]: binds; binding [5]: binds |
| endogenous HO-1 (full-length, ER-anchored) (protein, UniProt P09601 1-288) MERPQPDSMPQDLSEALKEATKEVHTQAENAEFMRNFQKGQVTRDGFKLVMASLYHIYVALEEEIERNKESPVFAPVYFPEELHRKAALEQDLAFWYGPRWQEVIPYTPAMQRYVKRLHEVGRTEPELLVAHAYTRYLGDLSGGQVLKKIAQKALDLPSSGEGLAFFTFPNIASATKFKQLYRSRMNSLEMTPAVRQRVIEEAKTAFLLNIQLFEELQELLTHDTKDQSPSRAPGLRQRASNKVQDSAPVETPRGKPPLNTRSQAPLLRWVLTLSFLVATVAVGLYAM |  | binding [6]: binds |
| Flag-tagged HO-1 with simultaneous mutation of all 5 residues (Tyr97, Arg100, Arg113, Gln212, Thr222) into alanine (protein, UniProt P09601 1-288) MERPQPDSMPQDLSEALKEATKEVHTQAENAEFMRNFQKGQVTRDGFKLVMASLYHIYVALEEEIERNKESPVFAPVYFPEELHRKAALEQDLAFWAGPAWQEVIPYTPAMQAYVKRLHEVGRTEPELLVAHAYTRYLGDLSGGQVLKKIAQKALDLPSSGEGLAFFTFPNIASATKFKQLYRSRMNSLEMTPAVRQRVIEEAKTAFLLNIALFEELQELLAHDTKDQSPSRAPGLRQRASNKVQDSAPVETPRGKPPLNTRSQAPLLRWVLTLSFLVATVAVGLYAM | binds weakly |  |
| Flag-tagged HO-1 with Arg100 mutated into alanine (protein, UniProt P09601 1-288) MERPQPDSMPQDLSEALKEATKEVHTQAENAEFMRNFQKGQVTRDGFKLVMASLYHIYVALEEEIERNKESPVFAPVYFPEELHRKAALEQDLAFWYGPAWQEVIPYTPAMQRYVKRLHEVGRTEPELLVAHAYTRYLGDLSGGQVLKKIAQKALDLPSSGEGLAFFTFPNIASATKFKQLYRSRMNSLEMTPAVRQRVIEEAKTAFLLNIQLFEELQELLTHDTKDQSPSRAPGLRQRASNKVQDSAPVETPRGKPPLNTRSQAPLLRWVLTLSFLVATVAVGLYAM | binds |  |
| Flag-tagged HO-1 with Gln212 mutated into alanine (protein, UniProt P09601 1-288) MERPQPDSMPQDLSEALKEATKEVHTQAENAEFMRNFQKGQVTRDGFKLVMASLYHIYVALEEEIERNKESPVFAPVYFPEELHRKAALEQDLAFWYGPRWQEVIPYTPAMQRYVKRLHEVGRTEPELLVAHAYTRYLGDLSGGQVLKKIAQKALDLPSSGEGLAFFTFPNIASATKFKQLYRSRMNSLEMTPAVRQRVIEEAKTAFLLNIALFEELQELLTHDTKDQSPSRAPGLRQRASNKVQDSAPVETPRGKPPLNTRSQAPLLRWVLTLSFLVATVAVGLYAM | binds |  |
| Flag-tagged cleaved HO-1 (HO-1ΔTMS) (domain or fragment, UniProt P09601 1-265) MERPQPDSMPQDLSEALKEATKEVHTQAENAEFMRNFQKGQVTRDGFKLVMASLYHIYVALEEEIERNKESPVFAPVYFPEELHRKAALEQDLAFWYGPRWQEVIPYTPAMQRYVKRLHEVGRTEPELLVAHAYTRYLGDLSGGQVLKKIAQKALDLPSSGEGLAFFTFPNIASATKFKQLYRSRMNSLEMTPAVRQRVIEEAKTAFLLNIQLFEELQELLTHDTKDQSPSRAPGLRQRASNKVQDSAPVETPRGKPPLNTRSQA |  | binding [7]: binds |

The next lines start with results.

| binding [3] | Binder | also measured |
| --- | --- | --- |
| binds | Flag-tagged HO-1 with Thr222 mutated into alanine (protein, UniProt P09601 1-288) MERPQPDSMPQDLSEALKEATKEVHTQAENAEFMRNFQKGQVTRDGFKLVMASLYHIYVALEEEIERNKESPVFAPVYFPEELHRKAALEQDLAFWYGPRWQEVIPYTPAMQRYVKRLHEVGRTEPELLVAHAYTRYLGDLSGGQVLKKIAQKALDLPSSGEGLAFFTFPNIASATKFKQLYRSRMNSLEMTPAVRQRVIEEAKTAFLLNIQLFEELQELLAHDTKDQSPSRAPGLRQRASNKVQDSAPVETPRGKPPLNTRSQAPLLRWVLTLSFLVATVAVGLYAM |  |
| binds | Flag-tagged HO-1 with Tyr97 mutated into alanine (protein, UniProt P09601 1-288) MERPQPDSMPQDLSEALKEATKEVHTQAENAEFMRNFQKGQVTRDGFKLVMASLYHIYVALEEEIERNKESPVFAPVYFPEELHRKAALEQDLAFWAGPRWQEVIPYTPAMQRYVKRLHEVGRTEPELLVAHAYTRYLGDLSGGQVLKKIAQKALDLPSSGEGLAFFTFPNIASATKFKQLYRSRMNSLEMTPAVRQRVIEEAKTAFLLNIQLFEELQELLTHDTKDQSPSRAPGLRQRASNKVQDSAPVETPRGKPPLNTRSQAPLLRWVLTLSFLVATVAVGLYAM |  |
| binds | Flag-tagged HO-1 with Arg113 mutated into alanine (protein, UniProt P09601 1-288) MERPQPDSMPQDLSEALKEATKEVHTQAENAEFMRNFQKGQVTRDGFKLVMASLYHIYVALEEEIERNKESPVFAPVYFPEELHRKAALEQDLAFWYGPRWQEVIPYTPAMQAYVKRLHEVGRTEPELLVAHAYTRYLGDLSGGQVLKKIAQKALDLPSSGEGLAFFTFPNIASATKFKQLYRSRMNSLEMTPAVRQRVIEEAKTAFLLNIQLFEELQELLTHDTKDQSPSRAPGLRQRASNKVQDSAPVETPRGKPPLNTRSQAPLLRWVLTLSFLVATVAVGLYAM |  |
